Assay results as given in PMC6579516.
No constants are given. Whether binding was seen depends on the method and setting. Some binding calls cover weakened binding; strength is not graded here.

Amino acid sequences for entries named in this document (tags omitted).
UniProt P42945: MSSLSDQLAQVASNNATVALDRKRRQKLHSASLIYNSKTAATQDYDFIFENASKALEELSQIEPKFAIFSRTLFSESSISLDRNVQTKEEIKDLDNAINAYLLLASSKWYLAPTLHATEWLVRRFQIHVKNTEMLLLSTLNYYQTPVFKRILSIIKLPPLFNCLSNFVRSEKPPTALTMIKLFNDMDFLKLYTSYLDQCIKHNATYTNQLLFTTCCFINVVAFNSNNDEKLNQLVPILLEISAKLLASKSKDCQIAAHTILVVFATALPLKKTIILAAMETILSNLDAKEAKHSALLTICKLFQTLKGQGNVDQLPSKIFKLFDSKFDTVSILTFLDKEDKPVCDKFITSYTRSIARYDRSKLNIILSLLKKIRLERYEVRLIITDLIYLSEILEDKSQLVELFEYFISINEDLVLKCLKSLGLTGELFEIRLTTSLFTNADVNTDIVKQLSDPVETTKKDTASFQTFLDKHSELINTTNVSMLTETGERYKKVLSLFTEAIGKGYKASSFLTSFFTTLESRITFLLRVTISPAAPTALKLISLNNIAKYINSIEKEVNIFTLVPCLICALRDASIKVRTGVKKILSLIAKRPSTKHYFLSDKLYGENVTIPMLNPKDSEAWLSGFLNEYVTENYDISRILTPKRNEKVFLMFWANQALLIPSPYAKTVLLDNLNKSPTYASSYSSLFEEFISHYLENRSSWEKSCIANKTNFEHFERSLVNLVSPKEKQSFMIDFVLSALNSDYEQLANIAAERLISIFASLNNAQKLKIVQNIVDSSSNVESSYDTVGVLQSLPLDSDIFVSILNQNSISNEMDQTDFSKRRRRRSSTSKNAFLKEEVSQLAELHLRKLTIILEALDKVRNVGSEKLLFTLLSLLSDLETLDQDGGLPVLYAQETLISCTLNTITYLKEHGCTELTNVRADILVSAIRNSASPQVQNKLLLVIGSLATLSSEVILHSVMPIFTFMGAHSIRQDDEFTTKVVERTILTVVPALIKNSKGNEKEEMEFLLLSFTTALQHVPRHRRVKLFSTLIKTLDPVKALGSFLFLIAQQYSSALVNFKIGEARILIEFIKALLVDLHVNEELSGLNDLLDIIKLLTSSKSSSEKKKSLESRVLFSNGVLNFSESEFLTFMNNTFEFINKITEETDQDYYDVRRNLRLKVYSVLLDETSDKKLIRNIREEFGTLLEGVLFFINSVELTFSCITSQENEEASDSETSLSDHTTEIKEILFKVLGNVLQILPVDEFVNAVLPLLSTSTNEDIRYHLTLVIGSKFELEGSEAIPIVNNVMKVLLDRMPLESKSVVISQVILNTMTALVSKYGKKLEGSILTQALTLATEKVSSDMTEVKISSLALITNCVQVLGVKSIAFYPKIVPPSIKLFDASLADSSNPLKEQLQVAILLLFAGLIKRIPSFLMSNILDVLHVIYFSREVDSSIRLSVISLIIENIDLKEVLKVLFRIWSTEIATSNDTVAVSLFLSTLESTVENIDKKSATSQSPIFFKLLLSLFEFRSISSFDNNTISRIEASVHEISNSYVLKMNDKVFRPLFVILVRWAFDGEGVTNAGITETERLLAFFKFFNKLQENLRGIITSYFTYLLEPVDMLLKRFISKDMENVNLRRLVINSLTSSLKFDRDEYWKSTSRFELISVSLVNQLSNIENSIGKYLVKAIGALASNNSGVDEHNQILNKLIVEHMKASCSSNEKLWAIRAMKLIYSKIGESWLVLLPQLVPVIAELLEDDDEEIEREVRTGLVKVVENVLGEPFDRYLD
UniProt P40055: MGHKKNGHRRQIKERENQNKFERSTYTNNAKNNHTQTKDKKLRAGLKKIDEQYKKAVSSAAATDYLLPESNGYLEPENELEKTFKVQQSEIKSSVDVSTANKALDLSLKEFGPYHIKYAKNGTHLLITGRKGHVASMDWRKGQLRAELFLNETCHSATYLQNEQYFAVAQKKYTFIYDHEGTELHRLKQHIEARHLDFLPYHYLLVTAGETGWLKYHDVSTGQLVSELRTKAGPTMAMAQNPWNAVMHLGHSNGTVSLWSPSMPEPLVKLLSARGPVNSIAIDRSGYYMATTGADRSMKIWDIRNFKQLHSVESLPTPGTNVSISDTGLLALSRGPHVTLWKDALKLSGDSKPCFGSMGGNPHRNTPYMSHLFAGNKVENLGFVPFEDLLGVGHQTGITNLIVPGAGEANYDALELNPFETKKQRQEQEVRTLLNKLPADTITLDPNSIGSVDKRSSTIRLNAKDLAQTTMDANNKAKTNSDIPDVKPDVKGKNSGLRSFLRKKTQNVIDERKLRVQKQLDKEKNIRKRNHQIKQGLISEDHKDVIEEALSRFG

T1: Imp3 (S. cerevisiae (endogenous in BY4741-derived strain)) (UniProt P32899)
T1 sequence: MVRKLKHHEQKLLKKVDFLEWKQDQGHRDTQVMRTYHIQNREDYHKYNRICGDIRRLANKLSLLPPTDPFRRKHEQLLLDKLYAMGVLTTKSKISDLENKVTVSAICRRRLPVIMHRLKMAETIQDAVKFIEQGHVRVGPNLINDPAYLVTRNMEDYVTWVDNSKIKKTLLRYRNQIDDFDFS


Key:
[1] = target: Utp10 with a C-terminal streptavidin-binding-peptide tag (S. cerevisiae) (UniProt P42945); test: cryo-EM structure; 5' ETS RNP assembled in vivo on the MS2-tagged pre-rRNA mimic covering the 5' ETS, 5' domain and central domain (B222) in strain Y186; tandem purification (MS2-3C-GFP on anti-GFP nanobody sepharose, 3C elution, then Utp10-SBP on streptavidin sepharose, biotin elution); 50 mM Tris-HCl pH 7.5, 150 mM NaCl, 5 mM MgCl2; 4.3 Å
[2] = target: T1, Imp3 (S. cerevisiae (endogenous in BY4741-derived strain)); test: as above

| Molecule | binding [1] | binding [2] |
| --- | --- | --- |
| Imp3 (protein, UniProt P32899 1-183) MVRKLKHHEQKLLKKVDFLEWKQDQGHRDTQVMRTYHIQNREDYHKYNRICGDIRRLANKLSLLPPTDPFRRKHEQLLLDKLYAMGVLTTKSKISDLENKVTVSAICRRRLPVIMHRLKMAETIQDAVKFIEQGHVRVGPNLINDPAYLVTRNMEDYVTWVDNSKIKKTLLRYRNQIDDFDFS | binds |  |
| Mpp10 (protein, UniProt P47083 1-593) MSELFGVLKSNAGRIILKDPSATSKDVKAYIDSVINTCKNGSITKKAELDEITVDGLDANQVWWQVKLVLDSIDGDLIQGIQELKDVVTPSHNLSDGSTLNSSSGEESELEEAESVFKEKQMLSADVSEIEEQSNDSLSENDEEPSMDDEKTSAEAAREEFAEEKRISSGQDERHSSPDPYGINDKFFDLEKFNRDTLAAEDSNEASEGSEDEDIDYFQDMPSDDEEEEAIYYEDFFDKPTKEPVKKHSDVKDPKEDEELDEEEHDSAMDKVKLDLFADEEDEPNAEGVGEASDKNLSSFEKQQIEIRKQIEQLENEAVAEKKWSLKGEVKAKDRPEDALLTEELEFDRTAKPVPVITSEVTESLEDMIRRRIQDSNFDDLQRRTLLDITRKSQRPQFELSDVKSSKSLAEIYEDDYTRAEDESALSEELQKAHSEISELYANLVYKLDVLSSVHFVPKPASTSLEIRVETPTISMEDAQPLYMSNASSLAPQEIYNVGKAEKDGEIRLKNGVAMSKEELTREDKNRLRRALKRKRSKANLPNVNKRSKRNDVVDTLSKAKNITVINQKGEKKDVSGKTKKSRSGPDSTNIKL | binds | binds |

Further lines, results first:

| binding [1] | binding [2] | Molecule |
| --- | --- | --- |
| binds |  | Utp7 (from UniProt P40055 1-554) |
| binds |  | Utp15 (protein, UniProt Q04305 1-513) MSTARPRIITSKAPLLPQQTTPEQRYWRQYTSAQLVKEHNSVTHISFNPQHPHDFAVTSSTRVQIFSSRTRQVIKTFSRFKDVVYSASFRSDGKLLCAGDATGLVSVYDSYNPRTILLSINASTHPTHVTKFHTQDNKILATASDDRVTRLWDISNAYEPQLELTGATDYVRTLSFIPAAPHLVATGSYDGLIRLYDTRSSGSTPIYSLNHDQPVENVIAVSPTQIVSCGGNNFKVWDLTSNKKLYERGNFNKAVTCLDYVENFDSPMQSALIASSLDGHVKVFDPLDNFQVKFGWKFSGPVLSCAVSPSTAQGNRHLVAGLSSGLLAIRTKKKEKRSSDKENAPASFNKNAKSNNFQRMMRGSEYQGDQEHIIHNDKVRSQRRMRAFERNINQFKWSEALDNAFVPGMAKELTLTVLQELRKRGKVRVALYGRDESTLEPLLNWCLKGIEDVRSASIVADWVAVVLELYGNTLESSPVLQELMIDLKTKVRHEIHKSKEAQRIEGMLQLLTS |
| binds |  | Sof1 (protein, UniProt P33750 1-489) MKIKTIKRSADDYVPVKSTQESQMPRNLNPELHPFERAREYTKALNATKLERMFAKPFVGQLGYGHRDGVYAIAKNYGSLNKLATGSADGVIKYWNMSTREEFVSFKAHYGLVTGLCVTQPRFHDKKPDLKSQNFMLSCSDDKTVKLWSINVDDYSNKNSSDNDSVTNEEGLIRTFDGESAFQGIDSHRENSTFATGGAKIHLWDVNRLKPVSDLSWGADNITSLKFNQNETDILASTGSDNSIVLYDLRTNSPTQKIVQTMRTNAICWNPMEAFNFVTANEDHNAYYYDMRNLSRSLNVFKDHVSAVMDVDFSPTGDEIVTGSYDKSIRIYKTNHGHSREIYHTKRMQHVFQVKYSMDSKYIISGSDDGNVRLWRSKAWERSNVKTTREKNKLEYDEKLKERFRHMPEIKRISRHRHVPQVIKKAQEIKNIELSSIKRREANERRTRKDMPYISERKKQIVGTVHKYEDSGRDRKRRKEDDKRDTQEK |
